Source: the supplement of paper PMC12067093, “Discovery and optimisation of a covalent ligand for TRIM25 and its application to targeted protein ubiquitination” (Chemical Science, 2025)
Some of the results follow.

Chains of the proteins cited; added tags and fusions are not shown. Lines headed by an entry give the natural chain unless they say otherwise; changes in a name come on top.
UniProt Q96CP2: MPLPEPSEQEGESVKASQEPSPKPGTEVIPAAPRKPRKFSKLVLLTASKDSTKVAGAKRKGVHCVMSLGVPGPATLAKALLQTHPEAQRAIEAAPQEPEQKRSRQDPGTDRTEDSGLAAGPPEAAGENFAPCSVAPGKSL
UniProt Q01415: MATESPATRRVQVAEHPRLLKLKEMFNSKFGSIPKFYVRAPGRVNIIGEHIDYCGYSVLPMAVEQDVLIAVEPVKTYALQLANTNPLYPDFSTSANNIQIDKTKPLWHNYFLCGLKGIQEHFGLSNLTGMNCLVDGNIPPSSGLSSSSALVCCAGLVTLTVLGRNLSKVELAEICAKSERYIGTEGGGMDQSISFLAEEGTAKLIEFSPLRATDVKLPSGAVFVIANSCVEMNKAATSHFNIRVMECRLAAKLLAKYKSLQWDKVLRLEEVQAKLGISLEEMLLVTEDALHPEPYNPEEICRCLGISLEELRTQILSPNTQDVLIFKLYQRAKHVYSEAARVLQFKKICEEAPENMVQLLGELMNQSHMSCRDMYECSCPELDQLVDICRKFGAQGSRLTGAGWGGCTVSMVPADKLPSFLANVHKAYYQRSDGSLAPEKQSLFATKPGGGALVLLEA
UniProt Q96RU3: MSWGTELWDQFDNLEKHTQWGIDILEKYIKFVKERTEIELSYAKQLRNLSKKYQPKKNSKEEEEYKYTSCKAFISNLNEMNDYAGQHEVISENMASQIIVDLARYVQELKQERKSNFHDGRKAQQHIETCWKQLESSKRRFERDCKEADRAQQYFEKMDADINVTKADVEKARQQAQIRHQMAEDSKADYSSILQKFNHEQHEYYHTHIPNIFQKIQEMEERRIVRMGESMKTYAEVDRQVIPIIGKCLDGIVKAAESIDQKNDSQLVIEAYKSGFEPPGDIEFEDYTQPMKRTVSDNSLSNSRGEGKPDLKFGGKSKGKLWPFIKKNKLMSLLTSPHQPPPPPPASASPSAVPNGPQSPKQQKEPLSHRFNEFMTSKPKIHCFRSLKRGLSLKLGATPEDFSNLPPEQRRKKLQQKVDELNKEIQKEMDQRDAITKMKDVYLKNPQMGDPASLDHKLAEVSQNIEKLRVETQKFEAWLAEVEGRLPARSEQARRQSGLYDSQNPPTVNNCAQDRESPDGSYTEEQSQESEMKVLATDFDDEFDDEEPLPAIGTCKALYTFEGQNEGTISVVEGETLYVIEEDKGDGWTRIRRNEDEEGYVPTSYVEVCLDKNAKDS
UniProt Q9BZ67: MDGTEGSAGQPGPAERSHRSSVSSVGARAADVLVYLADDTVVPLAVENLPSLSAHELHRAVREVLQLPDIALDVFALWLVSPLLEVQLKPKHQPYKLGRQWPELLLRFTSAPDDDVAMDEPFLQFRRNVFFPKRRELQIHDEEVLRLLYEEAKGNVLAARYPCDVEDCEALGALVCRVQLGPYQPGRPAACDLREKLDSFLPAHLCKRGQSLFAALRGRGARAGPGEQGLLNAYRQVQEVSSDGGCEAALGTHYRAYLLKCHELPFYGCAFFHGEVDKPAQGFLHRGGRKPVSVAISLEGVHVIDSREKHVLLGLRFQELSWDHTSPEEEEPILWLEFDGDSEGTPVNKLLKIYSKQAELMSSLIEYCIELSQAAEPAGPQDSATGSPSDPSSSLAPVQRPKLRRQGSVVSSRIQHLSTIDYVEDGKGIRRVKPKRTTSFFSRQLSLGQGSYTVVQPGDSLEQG
UniProt Q13045: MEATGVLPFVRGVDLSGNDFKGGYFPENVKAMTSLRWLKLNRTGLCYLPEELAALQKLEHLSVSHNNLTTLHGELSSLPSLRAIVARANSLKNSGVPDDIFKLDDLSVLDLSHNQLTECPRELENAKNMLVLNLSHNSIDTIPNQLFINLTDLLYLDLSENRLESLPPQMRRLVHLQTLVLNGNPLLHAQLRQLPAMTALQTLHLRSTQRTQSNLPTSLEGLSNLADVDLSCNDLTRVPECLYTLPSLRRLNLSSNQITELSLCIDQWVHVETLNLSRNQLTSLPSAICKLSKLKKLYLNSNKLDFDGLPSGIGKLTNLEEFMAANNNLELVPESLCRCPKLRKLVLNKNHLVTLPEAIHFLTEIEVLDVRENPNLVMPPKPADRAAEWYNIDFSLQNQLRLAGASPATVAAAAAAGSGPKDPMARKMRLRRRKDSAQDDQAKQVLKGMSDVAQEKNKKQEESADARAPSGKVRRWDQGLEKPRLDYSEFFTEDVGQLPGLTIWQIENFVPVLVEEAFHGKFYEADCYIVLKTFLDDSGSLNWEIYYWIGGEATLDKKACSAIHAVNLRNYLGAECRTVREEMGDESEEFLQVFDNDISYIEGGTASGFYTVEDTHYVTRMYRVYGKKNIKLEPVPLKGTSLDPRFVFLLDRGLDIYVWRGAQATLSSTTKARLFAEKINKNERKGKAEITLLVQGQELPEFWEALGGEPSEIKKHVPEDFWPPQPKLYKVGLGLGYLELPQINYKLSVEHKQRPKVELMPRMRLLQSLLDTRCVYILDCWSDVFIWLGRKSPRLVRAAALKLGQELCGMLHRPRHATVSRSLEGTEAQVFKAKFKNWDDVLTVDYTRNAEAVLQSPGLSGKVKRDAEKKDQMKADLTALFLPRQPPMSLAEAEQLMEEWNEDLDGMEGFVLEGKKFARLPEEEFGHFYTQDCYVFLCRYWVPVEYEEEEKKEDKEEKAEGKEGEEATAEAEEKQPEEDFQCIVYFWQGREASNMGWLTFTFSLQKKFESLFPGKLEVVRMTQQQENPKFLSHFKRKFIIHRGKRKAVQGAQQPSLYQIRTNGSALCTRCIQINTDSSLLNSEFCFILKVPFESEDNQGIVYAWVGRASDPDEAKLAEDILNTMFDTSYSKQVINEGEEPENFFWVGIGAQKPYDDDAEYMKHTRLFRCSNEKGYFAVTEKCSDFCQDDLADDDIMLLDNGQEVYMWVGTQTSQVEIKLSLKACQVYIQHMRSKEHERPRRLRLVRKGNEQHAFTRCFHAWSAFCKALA
UniProt Q8NFF5: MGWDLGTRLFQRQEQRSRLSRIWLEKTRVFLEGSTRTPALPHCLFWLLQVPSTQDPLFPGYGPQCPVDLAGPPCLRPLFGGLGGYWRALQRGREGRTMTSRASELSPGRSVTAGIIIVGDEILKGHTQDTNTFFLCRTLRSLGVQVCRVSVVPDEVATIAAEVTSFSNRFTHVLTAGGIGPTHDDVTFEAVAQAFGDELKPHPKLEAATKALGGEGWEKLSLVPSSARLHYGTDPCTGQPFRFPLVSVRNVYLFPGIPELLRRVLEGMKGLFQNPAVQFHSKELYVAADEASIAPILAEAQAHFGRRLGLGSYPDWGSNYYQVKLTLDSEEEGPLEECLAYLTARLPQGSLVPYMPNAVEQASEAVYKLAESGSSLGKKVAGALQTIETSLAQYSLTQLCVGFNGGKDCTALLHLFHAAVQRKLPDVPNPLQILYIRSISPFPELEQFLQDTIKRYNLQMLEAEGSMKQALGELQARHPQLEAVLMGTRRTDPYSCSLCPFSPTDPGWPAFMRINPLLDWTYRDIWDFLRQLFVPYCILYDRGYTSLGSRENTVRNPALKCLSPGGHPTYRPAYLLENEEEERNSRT
UniProt Q5TBA9: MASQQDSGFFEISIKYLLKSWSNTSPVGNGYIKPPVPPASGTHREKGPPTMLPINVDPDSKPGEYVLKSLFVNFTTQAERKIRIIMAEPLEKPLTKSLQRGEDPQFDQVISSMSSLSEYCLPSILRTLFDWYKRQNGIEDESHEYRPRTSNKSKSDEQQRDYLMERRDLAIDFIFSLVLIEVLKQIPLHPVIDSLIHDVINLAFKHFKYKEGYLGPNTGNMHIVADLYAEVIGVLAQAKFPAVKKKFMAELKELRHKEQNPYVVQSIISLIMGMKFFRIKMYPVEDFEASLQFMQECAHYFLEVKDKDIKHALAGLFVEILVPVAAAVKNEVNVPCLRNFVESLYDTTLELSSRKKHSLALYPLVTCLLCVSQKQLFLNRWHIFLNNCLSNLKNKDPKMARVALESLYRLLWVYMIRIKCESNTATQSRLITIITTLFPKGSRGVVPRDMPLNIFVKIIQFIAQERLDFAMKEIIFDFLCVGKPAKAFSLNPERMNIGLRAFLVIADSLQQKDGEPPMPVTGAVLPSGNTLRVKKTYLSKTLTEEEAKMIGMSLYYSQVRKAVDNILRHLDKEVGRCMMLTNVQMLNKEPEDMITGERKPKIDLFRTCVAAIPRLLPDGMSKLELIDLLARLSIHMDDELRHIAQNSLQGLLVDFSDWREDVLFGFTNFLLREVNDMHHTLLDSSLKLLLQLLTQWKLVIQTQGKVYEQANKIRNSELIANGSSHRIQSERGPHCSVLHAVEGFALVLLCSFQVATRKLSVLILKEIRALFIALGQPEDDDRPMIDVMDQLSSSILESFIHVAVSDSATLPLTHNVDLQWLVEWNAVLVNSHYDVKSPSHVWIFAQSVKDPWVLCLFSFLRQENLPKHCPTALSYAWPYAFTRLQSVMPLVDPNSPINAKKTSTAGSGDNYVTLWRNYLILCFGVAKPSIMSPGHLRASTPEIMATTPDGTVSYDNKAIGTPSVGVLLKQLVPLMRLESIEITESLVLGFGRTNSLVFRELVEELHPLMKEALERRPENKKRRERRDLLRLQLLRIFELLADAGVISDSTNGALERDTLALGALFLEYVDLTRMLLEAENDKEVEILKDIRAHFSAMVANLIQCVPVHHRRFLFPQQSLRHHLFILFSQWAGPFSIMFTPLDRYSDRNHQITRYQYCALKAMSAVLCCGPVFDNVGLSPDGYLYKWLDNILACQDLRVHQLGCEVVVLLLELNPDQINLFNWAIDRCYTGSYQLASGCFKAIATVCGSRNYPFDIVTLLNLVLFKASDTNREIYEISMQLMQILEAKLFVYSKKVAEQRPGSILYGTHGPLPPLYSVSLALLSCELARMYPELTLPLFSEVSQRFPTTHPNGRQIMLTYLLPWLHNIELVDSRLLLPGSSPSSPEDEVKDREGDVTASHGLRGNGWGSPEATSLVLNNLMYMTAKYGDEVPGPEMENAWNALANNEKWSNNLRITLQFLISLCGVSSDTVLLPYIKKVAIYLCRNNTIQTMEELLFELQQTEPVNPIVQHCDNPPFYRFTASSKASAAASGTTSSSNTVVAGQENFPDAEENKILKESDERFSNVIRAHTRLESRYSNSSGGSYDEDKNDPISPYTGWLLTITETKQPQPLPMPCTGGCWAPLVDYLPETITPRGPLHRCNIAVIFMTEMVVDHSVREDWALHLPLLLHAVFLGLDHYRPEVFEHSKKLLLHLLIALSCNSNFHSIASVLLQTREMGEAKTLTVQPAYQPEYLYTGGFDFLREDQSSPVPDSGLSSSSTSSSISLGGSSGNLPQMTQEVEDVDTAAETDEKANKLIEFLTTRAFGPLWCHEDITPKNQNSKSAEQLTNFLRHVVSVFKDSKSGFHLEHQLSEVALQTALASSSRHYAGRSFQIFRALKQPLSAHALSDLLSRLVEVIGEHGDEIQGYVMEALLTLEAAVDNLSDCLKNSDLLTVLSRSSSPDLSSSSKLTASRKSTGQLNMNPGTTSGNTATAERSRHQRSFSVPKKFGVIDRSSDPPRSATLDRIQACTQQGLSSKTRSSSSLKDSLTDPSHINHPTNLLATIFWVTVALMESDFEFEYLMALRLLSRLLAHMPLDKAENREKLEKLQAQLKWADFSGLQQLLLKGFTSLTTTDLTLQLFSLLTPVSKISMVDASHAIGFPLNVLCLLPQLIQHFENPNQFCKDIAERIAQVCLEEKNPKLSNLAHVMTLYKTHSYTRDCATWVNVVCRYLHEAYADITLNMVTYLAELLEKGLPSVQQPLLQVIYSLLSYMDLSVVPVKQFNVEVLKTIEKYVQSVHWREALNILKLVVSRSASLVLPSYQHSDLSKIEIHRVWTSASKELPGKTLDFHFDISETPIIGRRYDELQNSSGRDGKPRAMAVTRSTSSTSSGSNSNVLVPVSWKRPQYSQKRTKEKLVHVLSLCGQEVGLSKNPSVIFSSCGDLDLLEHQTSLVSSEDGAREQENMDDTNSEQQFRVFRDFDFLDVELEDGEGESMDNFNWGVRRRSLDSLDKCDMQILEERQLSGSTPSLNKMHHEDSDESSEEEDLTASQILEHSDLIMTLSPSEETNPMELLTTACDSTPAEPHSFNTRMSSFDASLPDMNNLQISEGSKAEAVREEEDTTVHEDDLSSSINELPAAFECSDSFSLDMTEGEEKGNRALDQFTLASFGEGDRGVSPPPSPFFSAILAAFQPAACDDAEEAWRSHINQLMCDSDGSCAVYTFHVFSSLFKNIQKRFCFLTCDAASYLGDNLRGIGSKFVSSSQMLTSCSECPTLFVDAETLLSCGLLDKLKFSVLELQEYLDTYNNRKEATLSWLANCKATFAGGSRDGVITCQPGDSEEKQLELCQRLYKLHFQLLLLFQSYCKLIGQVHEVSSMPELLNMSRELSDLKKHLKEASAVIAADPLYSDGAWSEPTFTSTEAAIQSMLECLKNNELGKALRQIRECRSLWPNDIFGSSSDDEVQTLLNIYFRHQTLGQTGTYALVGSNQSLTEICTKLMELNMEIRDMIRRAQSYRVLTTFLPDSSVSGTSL

Compound: Cc1cc(ccc1-c1ccccc1)C(=O)N1CCCN(CC1)C(=O)CCl [compound 10]
Experiment: probe-labelled cysteine peptide fold change vs DMSO (competition) (log2 fold change); higher = less target engagement (more negative = stronger competition)
Conditions: THP-1, incubation time: 4 h
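Further: competitive profiling in live THP-1 cells: cysteine peptides tagged with an iodoacetamide desthiobiotin (IA-DTB) probe, intensity after compound treatment relative to DMSO-treated cells.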

Row | Target | probe-labelled cysteine peptide fold change (10 µM) | probe-labelled cysteine peptide fold change (50 µM)
1 | FYCO1_Q9BQS8_293_LTCLVAELQK (UniProt Q9BQS8) | 0.0275 | 0.224
2 | FKBP4_Q02790_342_LQAFSAAIESCNK (UniProt Q02790) | 0.18 | 0.221
3 | FLYWCH2_Q96CP2_64_GVHCVMSLGVPGPATLAK (UniProt Q96CP2) | -0.089 | -0.439
4 | GALK2_Q01415_379_DMYECSCPELDQLVDICR (UniProt Q01415) | 0.0691 | -0.0385
5 | FNBP1_Q96RU3_511_RQSGLYDSQNPPTVNNCAQDR (UniProt Q96RU3) | 0.158 | -0.162
6 | G6PD_P11413_232_DNIACVILTFK (UniProt P11413) | -0.0864 | 0.845
7 | GALE_Q14376_330_MCEDLWR (UniProt Q14376) | 0.036 | -0.0538
8 | FTO_Q9C0B1_308_ISWDIETPGLAIPLHQGDCYFMLDDLNATHQHCVLAGSQPR (UniProt Q9C0B1) | 0.112 | 0.242
9 | FUBP1_Q96AE4_148_SCMLTGTPESVQSAKR (UniProt Q96AE4) | 0.287 | -0.336
10 | FRMD8_Q9BZ67_191_VQLGPYQPGRPAACDLR (UniProt Q9BZ67) | -0.218 | -0.432
11 | FRMD8_Q9BZ67_206_LDSFLPAHLCK (UniProt Q9BZ67) | -0.0859 | -0.347
12 | FLNB_O75369_2537_SSFLVDCSK (UniProt O75369) | -0.096 | 0.0149
13 | GABPB1_Q06547_331_RQCIEIIENR (UniProt Q06547) | -0.171 | 0.199
14 | FLII_Q13045_337_LTNLEEFMAANNNLELVPESLCR (UniProt Q13045) | -0.447 | -0.421
15 | FHL3_Q13643_10_CNESLYGR (UniProt Q13643) | 0.121 | -0.0227
16 | FTO_Q9C0B1_392_CTDWWCQPMAQLEALWK (UniProt Q9C0B1) | -0.031 | -0.231
17 | FLII_Q13045_808_LGQELCGMLHRPR (UniProt Q13045) | -0.233 | -0.148
18 | FPGS_Q05932_111+116_GSTCAFTECILR (UniProt Q05932) | -0.124 | -0.693
19 | FLAD1_Q8NFF5_561_CLSPGGHPTYRPAYLLENEEEER (UniProt Q8NFF5) | -0.0194 | 0.376
20 | FSCN1_Q16658_334_NASCYFDIEWR (UniProt Q16658) | 0.0575 | 0.117

Full records from above.
FLII_Q13045_337_LTNLEEFMAANNNLELVPESLCR (UniProt Q13045) as listed: probe-labelled cysteine peptide fold change (10 µM) = -0.447; probe-labelled cysteine peptide fold change (50 µM) = -0.421
FNBP1_Q96RU3_511_RQSGLYDSQNPPTVNNCAQDR (UniProt Q96RU3) as listed: probe-labelled cysteine peptide fold change (10 µM) = 0.158; probe-labelled cysteine peptide fold change (50 µM) = -0.162

Continued.

Row | Target | probe-labelled cysteine peptide fold change (10 µM) | probe-labelled cysteine peptide fold change (50 µM)
21 | FLAD1_Q8NFF5_409_DCTALLHLFHAAVQR (UniProt Q8NFF5) | 0.157 | 0.269
22 | GALK2_Q01415_349_KICEEAPENMVQLLGELMNQSHMSCR (UniProt Q01415) | -0.0129 | -0.0841
23 | GAK_O14976_560_YIEYMCDMVAEEPITPHSKPILVR (UniProt O14976) | -0.0324 | -0.231
24 | FRY_Q5TBA9_2404_LVHVLSLCGQEVGLSK (UniProt Q5TBA9) | -0.301 | -0.0537
25 | FNBP1_Q96RU3_555_VLATDFDDEFDDEEPLPAIGTCK (UniProt Q96RU3) | -0.298 | -0.354
26 | FNDC3A_Q9Y2H6_625_EHLCDR (UniProt Q9Y2H6) | -0.00617 | -0.0301
27 | GALK2_Q01415_303_CLGISLEELR (UniProt Q01415) | 0.307 | -0.31
28 | FRY_Q5TBA9_2174_IAQVCLEEK (UniProt Q5TBA9) | 0.1 | -0.0832
29 | FOXP1_Q9H334_29_SNGSAIQNGSGGSNHLLECGGLR (UniProt Q9H334) | -0.0915 | -0.162
30 | FOCAD_Q5VW36_392_QQLALNLLEMIQQECYR (UniProt Q5VW36) | -0.143 | -0.14
31 | FLI1_Q01543_83_ESPVDCSVSK (UniProt Q01543) | -0.136 | 0.244
32 | FRA10AC1_Q70Z53_175_GQFFCGNK (UniProt Q70Z53) | -0.0818 | -0.0768
33 | FHL2_Q14192_224_CAGCTNPISGLGGTK (UniProt Q14192) | -0.0925 | -0.184
34 | FYN_P06241_404_SANILVGNGLICK (UniProt P06241) | -0.0622 | -0.152
35 | FNDC3B_Q53EP0_1025_LTEFTCYSFR (UniProt Q53EP0) | 0.341 | 0.271
36 | FUCA2_Q9BTY2_269_WGAGSICK (UniProt Q9BTY2) | -0.237 | -0.248
37 | FUCA2_Q9BTY2_455_LLGHGQPLNWISLEQNGIMVELPQLTIHQMPCK (UniProt Q9BTY2) | 0.939 | -0.246
38 | GADD45GIP1_Q8TAE8_124_EQHIAECMAK (UniProt Q8TAE8) | 0.308 | 0.47
39 | FILIP1L_Q4L180_737_IHEYMATEDLICHLQGDHSVLQK (UniProt Q4L180) | -0.0256 | -0.111
